{
  "source": "the supplement of paper PMC8732350",
  "note": "Values joined by “and” are separate entries in the source; they are usually repeats but may differ in a detail not shown here. Equal entries are not always repeated. Structures can show the parent of a compound that is named as a salt. ± gives the standard deviation of the averaged measurements. This is one part of the list. Single values are uncertain here, since repeats match poorly.",
  "data": [
    {"system": "A549", "experiment": "surface PD-L1 immunofluorescence intensity relative to IFN-gamma-only control (ratio); higher = more PD-L1 expression", "conditions": "10 µM; exposure time 24 h; IFN-gamma 100 ng/mL", "values": [
      {"smiles": "CC(C(=O)O)c1ccc2c(c1)[nH]c1ccc(Cl)cc12", "note": "(configuration not stated) [Carprofen]", "surface PD-L1 immunofluorescence intensity": 0.91},
      {"smiles": "CCCCc1cc2ccccc2c(OCCN(C)C)n1", "note": "[Dimethisoquin hydrochloride]", "surface PD-L1 immunofluorescence intensity": 0.979},
      {"smiles": "CC(NC(=O)C(Cc1ccccc1)NC(=O)OCc1ccccc1)C(=O)CF", "note": "(configuration not stated)", "surface PD-L1 immunofluorescence intensity": 1.05},
      {"smiles": "Cc1cccc(C)c1NC(=O)C(C)N", "note": "(configuration not stated) [Tocainide hydrochloride]", "surface PD-L1 immunofluorescence intensity": 0.968},
      {"smiles": "O=C1c2c(O)cccc2C([C@@H]2O[C@H](CO)[C@@H](O)[C@H](O)[C@H]2O)c2cc(CO)cc(O)c21", "note": "(some centres not stated) [Aloin (Barbaloin)]", "surface PD-L1 immunofluorescence intensity": 0.876},
      {"smiles": "NC(N)=NC(N)=Nc1cccc(Cl)c1", "note": "[m-Chlorophenylbiguanide hydrochloride]", "surface PD-L1 immunofluorescence intensity": 1.01},
      {"smiles": "COc1cc(C(=O)NC(=S)Nc2cccc(NC(=O)c3ccccc3)c2)cc(OC)c1OC", "surface PD-L1 immunofluorescence intensity": 1.04},
      {"smiles": "COc1cc([S+](C)[O-])ccc1-c1nc2cccnc2[nH]1", "note": "(configuration not stated) [Sulmazole]", "surface PD-L1 immunofluorescence intensity": 1.11},
      {"smiles": "C[C@H](CCC(=O)O)[C@H]1CC[C@H]2[C@@H]3[C@H](O)C[C@@H]4C[C@H](O)CC[C@]4(C)[C@H]3C[C@H](O)[C@]12C", "note": "[Cholic acid]", "surface PD-L1 immunofluorescence intensity": 0.982},
      {"smiles": "O=c1ccc2cc(O)c(O)cc2o1", "note": "[Esculetin]", "surface PD-L1 immunofluorescence intensity": 0.972},
      {"smiles": "COc1ccc(CCN(C)CCCN2CCc3cc(OC)c(OC)cc3CC2=O)cc1OC", "note": "[Zatebradine hydrochloride]", "surface PD-L1 immunofluorescence intensity": 0.957},
      {"smiles": "O=C(OCC(O)CO)c1ccccc1Nc1ccnc2cc(Cl)ccc12", "note": "(configuration not stated) [Glafenine hydrochloride]", "surface PD-L1 immunofluorescence intensity": 0.994},
      {"smiles": "COc1cc(N)c(Cl)cc1C(=O)OCCCN1CCCCC1", "surface PD-L1 immunofluorescence intensity": 1.07},
      {"smiles": "CC(C(=O)O)c1ccc(-c2ccccc2)c(F)c1", "note": "(configuration not stated) [Flurbiprofen]", "surface PD-L1 immunofluorescence intensity": "0.988 ± 0.044"},
      {"smiles": "COc1cc2c(N3CCN(C(=O)Nc4ccc(OC(C)C)cc4)CC3)ncnc2cc1OCCCN1CCCCC1", "note": "[Tandutinib (MLN518)]", "surface PD-L1 immunofluorescence intensity": 1.06},
      {"smiles": "NC(=O)c1cn(Cc2c(F)cccc2F)nn1", "note": "[Rufinamide (Banzel)]", "surface PD-L1 immunofluorescence intensity": 0.905},
      {"smiles": "Cc1cc(O)c2c(c1)C(=O)c1cccc(O)c1C2=O", "note": "[Chrysophanic acid (Chrysophanol)]", "surface PD-L1 immunofluorescence intensity": "1.04 ± 0.012"},
      {"smiles": "CN[C@@H](C)C(=O)N[C@H]1CN(C(=O)CC(C)C)CC[C@H]2CC[C@@H](C(=O)NC(c3ccccc3)c3ccccc3)N2C1=O", "surface PD-L1 immunofluorescence intensity": 1.03},
      {"smiles": "CN1[C@@H]2CC[C@H]1C[C@@H](OC(=O)c1c[nH]c3ccccc13)C2", "note": "[Tropisetron hydrochloride]", "surface PD-L1 immunofluorescence intensity": 1.02},
      {"smiles": "CN1[C@@H]2CC[C@H]1C[C@@H](OC(=O)c1c[nH]c3ccccc13)C2", "note": "[Tropisetron HCl]", "surface PD-L1 immunofluorescence intensity": 0.945},
      {"smiles": "COc1ccccc1N1CCN(CCCCN2C(=O)c3ccccc3C2=O)CC1", "note": "[NAN-190 hydrobromide]", "surface PD-L1 immunofluorescence intensity": 1.06},
      {"smiles": "Cc1cccc(C)c1OCC(C)N", "note": "(configuration not stated) [Mexiletine hydrochloride]", "surface PD-L1 immunofluorescence intensity": "0.959 ± 0.14"},
      {"smiles": "Nc1nc(CC(=O)Nc2ccc(CCNC[C@H](O)c3ccccc3)cc2)cs1", "note": "[Mirabegron (YM178)]", "surface PD-L1 immunofluorescence intensity": 1.04},
      {"smiles": "NC[C@@H]1O[C@H](O[C@H]2[C@@H](O)[C@H](O[C@@H]3[C@@H](O)[C@H](N)C[C@H](N)[C@H]3O[C@H]3O[C@H](CO)[C@@H](O)[C@H](O)[C@H]3N)O[C@@H]2CO)[C@H](N)[C@@H](O)[C@@H]1O", "note": "[Paromomycin sulfate]", "surface PD-L1 immunofluorescence intensity": 1.1},
      {"smiles": "COc1ccccc1OCC(O)CO", "note": "(configuration not stated) [Guaifenesin]", "surface PD-L1 immunofluorescence intensity": 0.952},
      {"smiles": "Cc1cc(=O)[nH]c(=S)[nH]1", "note": "[Methylthiouracil]", "surface PD-L1 immunofluorescence intensity": 0.963},
      {"smiles": "O=C(O)c1ccc(N2C(=O)C(=Cc3ccccc3)SC2=S)cc1", "surface PD-L1 immunofluorescence intensity": 1.06},
      {"smiles": "CC(=O)[C@H]1CC[C@H]2[C@@H]3C=CC4=CC(=O)CC[C@@]4(C)[C@@H]3CC[C@]12C", "note": "[Dydrogesterone]", "surface PD-L1 immunofluorescence intensity": 0.953},
      {"smiles": "Cc1c(N(C)C)c(=O)n(-c2ccccc2)n1C", "note": "[Amidopyrine]", "surface PD-L1 immunofluorescence intensity": 0.914},
      {"smiles": "Oc1c(Cl)cc(Cl)c(Cl)c1Cc1c(O)c(Cl)cc(Cl)c1Cl", "note": "[Hexachlorophene]", "surface PD-L1 immunofluorescence intensity": "1.09 ± 0.053"},
      {"smiles": "C=C1C(=O)[C@]23[C@H](O)[C@H]1CC[C@H]2[C@@]12CO[C@]3(O)[C@@H](O)[C@@H]1C(C)(C)CC[C@@H]2O", "note": "[Oridonin (Isodonol)]", "surface PD-L1 immunofluorescence intensity": 1.09},
      {"smiles": "COc1ccc(/C=C/C(=O)Nc2ccccc2C(=O)O)cc1OC", "note": "[Tranilast]", "surface PD-L1 immunofluorescence intensity": "1.03 ± 0.097"},
      {"smiles": "Oc1ccc(/C=C/c2cc(O)cc(O)c2)cc1", "note": "[Resveratrol]", "surface PD-L1 immunofluorescence intensity": "1.05 ± 0.052"},
      {"smiles": "CN1CCN(CCCN2c3ccccc3Sc3ccc(C(F)(F)F)cc32)CC1", "note": "[Trifluoperazine dihydrochloride]", "surface PD-L1 immunofluorescence intensity": 0.912},
      {"smiles": "CC(S)C(=O)NCC(=O)O", "note": "(configuration not stated) [Tiopronin (Thiola)]", "surface PD-L1 immunofluorescence intensity": 1.17},
      {"smiles": "CN(C)CCN1C(=O)c2ccccc2N(C)c2ccccc21", "note": "[Dibenzepine hydrochloride]", "surface PD-L1 immunofluorescence intensity": 0.962},
      {"smiles": "CNC[C@H](O)c1ccc(O)c(O)c1", "note": "[Epinephrine bitartrate (Adrenalinium)]", "surface PD-L1 immunofluorescence intensity": 1.01},
      {"smiles": "CC(C)NCC(O)COc1ccccc1-n1cccc1", "note": "(configuration not stated) [Isamoltane hemifumarate]", "surface PD-L1 immunofluorescence intensity": 1.01},
      {"smiles": "O=C(NCc1ccccc1)c1csc(Nc2ccncn2)n1", "note": "[Thiazovivin]", "surface PD-L1 immunofluorescence intensity": 0.94},
      {"smiles": "CC[C@H](C)[C@H](N)C1=N[C@H](C(=O)N[C@@H](CC(C)C)C(=O)N[C@H](CCC(=O)O)C(=O)N[C@H](C(=O)N[C@H]2CCCCNC(=O)[C@H](CC(N)=O)NC(=O)[C@@H](CC(=O)O)NC(=O)[C@H](Cc3cnc[nH]3)NC(=O)[C@@H](Cc3ccccc3)NC(=O)[C@H]([C@@H](C)CC)NC(=O)[C@@H](CCCN)NC2=O)[C@@H](C)CC)CS1", "note": "[Bacitracin]", "surface PD-L1 immunofluorescence intensity": 0.974},
      {"smiles": "CC(=O)C1=C(O)C=C2Oc3c(C(C)=O)c(O)c(C)c(O)c3[C@]2(C)C1=O", "note": "[Usnic acid]", "surface PD-L1 immunofluorescence intensity": 1.09},
      {"smiles": "O=C(CCc1ccc(O)cc1)c1c(O)cc(O)cc1O", "note": "[Phloretin (Dihydronaringenin)]", "surface PD-L1 immunofluorescence intensity": 1.17},
      {"smiles": "COc1cccc(-c2cc(=O)c3ccccc3o2)c1N", "surface PD-L1 immunofluorescence intensity": "0.948 and 0.897 and 0.866"},
      {"smiles": "C=CCNC(N)=S", "note": "[Allylthiourea]", "surface PD-L1 immunofluorescence intensity": 0.961},
      {"smiles": "CN(C)CCOC(C)(c1ccccc1)c1ccccn1", "note": "(configuration not stated) [Doxylamine succinate]", "surface PD-L1 immunofluorescence intensity": 0.912},
      {"smiles": "Oc1c(I)cc(Cl)c2cccnc12", "note": "[Clioquinol]", "surface PD-L1 immunofluorescence intensity": 1.07},
      {"smiles": "C[C@@H](O)[C@H]1C(=O)N2C(C(=O)O)=C(S[C@@H]3CN[C@H](CNS(N)(=O)=O)C3)[C@H](C)[C@H]12", "note": "[Doripenem Hydrate]", "surface PD-L1 immunofluorescence intensity": 0.961}
    ]}
  ]
}
